# Values joined by “and” are separate entries in the source; they are usually repeats but may differ in a detail not shown here. Identical values can stand only once. Inconclusive results, whose numbers are uncertain, are shown with a selection of clear calls. Potencies of inconclusive entries are doubtful fits and often do not repeat. Where a structure was tested more than once in an assay, its records may differ in their call. Active and inactive are the calls of the source. How the source made its calls: active means hit-call score of the fitted dose curve at least 0.9, where 1 is the maximum; inconclusive means response in the unintended direction; inactive means score below 0.9.
# Chains of the proteins cited; added tags and fusions are not shown. Lines headed by an entry give the natural chain unless they say otherwise; changes in a name come on top.
# UniProt P19793: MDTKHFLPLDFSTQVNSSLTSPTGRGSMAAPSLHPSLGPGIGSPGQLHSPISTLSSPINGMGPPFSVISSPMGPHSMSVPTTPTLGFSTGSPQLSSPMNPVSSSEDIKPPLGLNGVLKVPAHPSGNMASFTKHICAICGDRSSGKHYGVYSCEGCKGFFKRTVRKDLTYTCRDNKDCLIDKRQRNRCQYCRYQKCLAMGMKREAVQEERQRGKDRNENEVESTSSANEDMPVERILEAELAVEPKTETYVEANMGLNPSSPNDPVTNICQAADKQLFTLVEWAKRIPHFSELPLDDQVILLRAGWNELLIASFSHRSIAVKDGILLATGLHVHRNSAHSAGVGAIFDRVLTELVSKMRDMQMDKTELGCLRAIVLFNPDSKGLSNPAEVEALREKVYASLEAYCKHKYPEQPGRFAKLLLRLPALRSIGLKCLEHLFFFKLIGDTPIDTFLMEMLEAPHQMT
# Biological target: Retinoic acid receptor RXR-alpha (Homo sapiens) (UniProt P19793)
# Assay: OT_NURR1_NURR1RXRa_0480: Odyssey Thera (OT) 8-hour HEK293T Protein Complementation Assay for Nurr1/retinoid X receptor (RXR) (AID 2283385)
# Protocol: OT_NURR1_NURR1RXRa_0480 is a cell-based assay that uses HEK293T, a human kidney cell line, with measurements taken at 8 hours after chemical dosing in a 384-well plate.OT_NURR1_NURR1RXRa_0480 is one of one assay component(s) measured or calculated from the OT_NURR1_NURR1RXRa_0480 assay. It is designed to make measurements of protein fragment complementation, a form of binding reporter, as detected with fluorescence intensity signals by Protein-fragment Complementation technology.Data from the assay component OT_NURR1_NURR1RXRa_0480 was analyzed into 1 assay endpoint. This assay endpoint, OT_NURR1_NURR1RXRa_0480, was analyzed in the positive analysis fitting direction relative to DMSO as the negative control and baseline of activity. Using a type of binding reporter, measures of receptor for gain-of-signal activity can be used to understand the binding at the pathway-level as they relate to the gene RXRA. Furthermore, this assay endpoint can be referred to as a primary readout, because the performed assay has only produced 1 assay endpoint. To generalize the intended target to other relatable targets, this assay endpoint is annotated to the nuclear receptor intended target family, where the subfamily is non-steroidal.
# Protein-fragment complementation assay, or PCA, is a method for the identification and quantification of protein-protein interactions. In the PCA, the proteins of interest ("bait" and "prey") are each covalently linked to fragments of a third protein (e.g. DHFR, which acts as a "reporter"). Interaction between the bait and the prey proteins brings the fragments of the reporter protein in close proximity to allow them to form a functional reporter protein whose activity can be measured.
Compound,AC50,outcome
NCCN1CCNCC1,inconclusive: 50 µM,–
CCC/C=C/C=O,inconclusive: 50 µM,–
CC(=O)CC(=O)N(C)C,inconclusive: 50 µM,–
NCCN,inconclusive: 0.497 µM,–
CN(C)CCOC(c1ccccc1)c1ccccc1,–,inactive
CC(=O)OCCC(C)CC(C)(C)C (stereo not given),inconclusive: 0.821 µM,–
CC[C@H](NC(=O)c1cc(F)ccc1NS(=O)(=O)c1cccc2cccnc12)c1ccccc1,inconclusive: 2.79 µM,inactive
C=C[C@@]1(C)CC(=O)[C@]2(O)[C@@]3(C)[C@@H](O)CCC(C)(C)[C@@H]3[C@H](O)[C@H](OC(C)=O)[C@@]2(C)O1,active: 0.183 µM,–
CCN(Cc1cccnc1)C(=O)c1cccc(Cl)c1[C@]1(C)C(=O)N(Cc2ccc(OC)cc2OC)c2ccc(Cl)cc21,–,inactive
CC(C)(C)c1ccc(-c2ccc(C(C)(C)C)cc2)cc1,active: 85.6 µM,–
CSc1ccc(Oc2ccc(S(N)(=O)=O)cc2CN(C)C)cc1C,active: 50 µM,inactive
CC(=O)S[C@@H]1CC2=CC(=O)CC[C@]2(C)[C@H]2CC[C@@]3(C)[C@@H](CC[C@@]34CCC(=O)O4)[C@H]12,inconclusive: 12.7 µM and inconclusive: 10.2 µM and inconclusive: 9.08 µM,–
Cc1cccc(O)c1C,inconclusive: 51 µM,–
CC(C)(C)c1ccc(OC(=O)c2ccccc2O)cc1,active: 50 µM,–
NC(=O)N=NC(N)=O,inconclusive: 50 µM,–
CCCCCC(C)OC(=O)COc1ccc(Cl)c2cccnc12 (stereo not given),active: 15 µM,–
c1ccc2ccccc2c1,inconclusive: 50 µM,–

Compound,AC50,outcome
Nc1nc(=S)c2[nH]cnc2[nH]1,–,inactive
NC(=Nc1ccccc1)Nc1ccccc1,active: 5.14 µM and active: 12.2 µM,–
NC(N)=S,–,inactive
O=C1CCC(C2CCCCC2)CC1,–,inactive
O=c1ccc2ccccc2o1,inconclusive: 50 µM,inactive
CCCc1ccc(OC)cc1,inconclusive: 50.5 µM,–
CNC(=S)NN,active: 50 µM,–
CC(O)CNCC(C)O (stereo not given),inconclusive: 0.911 µM,–
CC#C[C@]1(O)CC[C@H]2[C@@H]3CCC4=CC(=O)CCC4=C3[C@@H](c3ccc(N(C)C)cc3)C[C@@]21C,active: 0.437 µM,inactive
O=C(N[C@@H](c1ccccc1)[C@@H]1CCCCN1)c1cccc(C(F)(F)F)c1Cl,inconclusive: 85.9 µM and inconclusive: 50 µM,–
NS(=O)(=O)c1cc2c(cc1Cl)NCNS2(=O)=O,–,inactive
CCCCCCC=O,inconclusive: 50 µM,–
C=C1C2CCC(C2)C1(C)C (stereo not given),inconclusive: 1.12 µM,–
CC(C)CCCCCCc1ccc(O)cc1,inconclusive: 87.9 µM [middle of 4 runs],–
CCCc1cc(=O)[nH]c(=S)[nH]1,inconclusive: 9.92 µM,inactive
CCCC(=O)OCCC(C)C,inconclusive: 50 µM,inactive
C1COCCN1,–,inactive

# Source: PubChem BioAssay (EPA / NIEHS)
